Experimental data from PubChem BioAssay AID1259423 (Fisher Drug Discovery Resource Center, 2018).
“And” between values parts separate entries of the source, which are not always exact repeats. Equal entries are not always repeated. The list shows a part of the results.

test system: Aedes aegypti neuropeptide Y-like receptor 7 (NPYLR7); test: agonists of mosquito NPYLR7 receptor, primary screen, cell-based, Aedes aegypti, calcium fluorescence, mosquito biting behavior (AID 1259423); conditions: HEK293T NPYLR7/Galpha15, GCaMP6s calcium fluorescence; measured here: Max-Min RFU normalised activation; at 10 µM; stronger effect = higher value;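 note: 0% = vehicle and 100% = reference agonist at the receptor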

| SMILES | activation |
| --- | --- |
| COc1cccc(N(C(=O)c2cccc(Cl)c2)C2CCNCC2)c1 | 11.6% |
| O=C(NCC1(N2CCCCC2)CCCCC1)c1cn2ccccc2n1 | 3.19% |
| CC(C)(C)OC(=O)N1CCC(Nc2ccccc2)(C(=O)N2CCC2)CC1 | -0.459% |
| CN(C)C1(CNC(=O)c2ccccn2)CCCCC1 | 4.05% |
| O=C(NCC1(N2CCOCC2)CCCCC1)c1ccc(Br)o1 | 5.33% |
| Cc1ccc(C(C)CCN(CCCl)CCCl)cc1 (stereo not given) | -8.24% |
| O=C(NCC1(N2CCCCC2)CCCCC1)c1cccs1 | -2.62% |
| Cc1nc([N+](=O)[O-])cn1CCC(=O)N[C@@H]1CCCC[C@H]1N1CCOCC1 | 7.32% |
| c1ccc(NC2CCN(CCc3ccncc3)CC2)cc1 | 4.01% |
| O=C(N[C@@H]1CCCC[C@H]1N1CCOCC1)c1cccc(Br)c1 | -17.9% |
| Cc1cc(=O)[nH]c(C(C)N2CCC(Nc3ccccc3)CC2)n1 (stereo not given) | 5.78% and 7.32% |
| O=C(NCC1(N2CCOCC2)CCCCC1)c1ccc2c3c(cccc13)CC2 | -1.67% |
| COCC(=O)N(c1cccc(C)c1)C1CCNCC1 | 10.2% |
| O=C(NCC1(N2CCCCC2)CCCCC1)c1cc2c(s1)CCC2 | 20.3% |
| COc1cc(NC2CCNCC2)cc(OC)c1 | -6.83% |
| O=C(NCC1(N2CCCCC2)CCCCC1)c1ccc2c(c1)OCO2 | 0.707% |
| O=c1[nH]c2ccccc2n1C1CCN(Cc2ccccn2)CC1 | -9.47% |
| Cc1cccc(N(C(=O)c2ccco2)C2CCN(C(=O)OC(C)(C)C)CC2)c1 | -0.52% |
| N#Cc1ccc(C(=O)CBr)cc1 | 11.5% |
| COc1cccc(NC2CCN(Cc3ccncc3)CC2)c1 | 0.519% |
| O=C(NCC1(N2CCOCC2)CCCCC1)c1ccc(OCC(F)(F)F)nc1 | -13.8% |
| O=c1[nH]c2ccccc2n1C1CCN(Cc2cccc(F)c2F)CC1 | -3.89% |
| COc1ccc(N(C(=O)CC(C)C)C2CCNCC2)cc1 | 9.74% |
| CCc1ccc(N(C(=O)c2cccc(C)c2)C2CCNCC2)cc1 | 13.3% |
| Cc1ccc(N(C(=O)c2ccco2)C2CCNCC2)cc1F | 15.2% |
